These results are taken from publication PMC7256068.

By UniProt entry, the sequences of proteins in these tests, tags left out.
UniProt Q92769: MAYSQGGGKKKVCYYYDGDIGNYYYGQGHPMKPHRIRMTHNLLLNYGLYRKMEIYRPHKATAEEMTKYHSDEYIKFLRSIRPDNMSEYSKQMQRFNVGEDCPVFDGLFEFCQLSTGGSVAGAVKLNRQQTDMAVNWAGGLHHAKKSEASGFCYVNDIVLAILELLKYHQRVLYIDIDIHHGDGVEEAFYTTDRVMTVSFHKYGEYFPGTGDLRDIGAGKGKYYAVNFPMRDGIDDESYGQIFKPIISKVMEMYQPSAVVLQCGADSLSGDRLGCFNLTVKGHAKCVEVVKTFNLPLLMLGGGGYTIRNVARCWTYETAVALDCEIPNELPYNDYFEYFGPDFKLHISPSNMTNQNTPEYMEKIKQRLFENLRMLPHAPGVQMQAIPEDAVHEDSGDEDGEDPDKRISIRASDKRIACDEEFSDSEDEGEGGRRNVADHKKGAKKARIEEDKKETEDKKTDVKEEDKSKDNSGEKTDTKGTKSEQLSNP
UniProt P12004: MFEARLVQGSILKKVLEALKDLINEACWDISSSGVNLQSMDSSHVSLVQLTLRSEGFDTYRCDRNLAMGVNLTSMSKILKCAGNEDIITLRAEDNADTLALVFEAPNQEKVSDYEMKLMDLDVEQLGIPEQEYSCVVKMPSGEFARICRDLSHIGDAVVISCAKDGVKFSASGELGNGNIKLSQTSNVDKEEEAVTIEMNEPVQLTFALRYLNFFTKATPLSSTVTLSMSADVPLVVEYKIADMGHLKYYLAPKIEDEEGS
UniProt Q93009: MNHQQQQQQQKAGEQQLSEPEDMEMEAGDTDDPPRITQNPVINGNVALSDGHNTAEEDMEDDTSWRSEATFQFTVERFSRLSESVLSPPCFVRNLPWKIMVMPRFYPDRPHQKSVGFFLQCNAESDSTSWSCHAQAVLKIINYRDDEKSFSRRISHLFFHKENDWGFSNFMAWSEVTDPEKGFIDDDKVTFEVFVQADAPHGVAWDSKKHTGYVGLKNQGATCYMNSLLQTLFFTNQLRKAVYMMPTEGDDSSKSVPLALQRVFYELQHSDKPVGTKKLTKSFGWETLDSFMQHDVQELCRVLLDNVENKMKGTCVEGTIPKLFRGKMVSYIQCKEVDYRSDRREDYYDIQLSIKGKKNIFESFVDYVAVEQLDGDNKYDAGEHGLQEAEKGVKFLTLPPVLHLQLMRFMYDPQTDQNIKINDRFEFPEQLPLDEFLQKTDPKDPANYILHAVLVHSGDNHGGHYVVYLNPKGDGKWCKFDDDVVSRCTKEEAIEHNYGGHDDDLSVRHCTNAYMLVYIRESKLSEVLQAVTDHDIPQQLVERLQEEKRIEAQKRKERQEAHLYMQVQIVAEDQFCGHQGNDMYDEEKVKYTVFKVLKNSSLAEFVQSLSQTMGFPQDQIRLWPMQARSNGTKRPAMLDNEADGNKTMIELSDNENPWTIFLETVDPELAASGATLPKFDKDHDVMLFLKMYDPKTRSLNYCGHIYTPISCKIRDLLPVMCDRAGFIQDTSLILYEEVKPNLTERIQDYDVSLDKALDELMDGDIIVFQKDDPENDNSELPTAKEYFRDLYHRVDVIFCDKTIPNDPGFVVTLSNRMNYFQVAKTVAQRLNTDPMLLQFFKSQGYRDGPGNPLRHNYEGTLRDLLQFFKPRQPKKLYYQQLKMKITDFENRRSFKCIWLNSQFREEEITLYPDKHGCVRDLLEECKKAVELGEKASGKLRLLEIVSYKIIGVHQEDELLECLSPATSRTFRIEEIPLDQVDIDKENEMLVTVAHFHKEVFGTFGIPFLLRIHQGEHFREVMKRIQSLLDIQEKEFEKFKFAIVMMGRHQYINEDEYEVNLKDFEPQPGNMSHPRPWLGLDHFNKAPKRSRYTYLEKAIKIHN
UniProt P83916: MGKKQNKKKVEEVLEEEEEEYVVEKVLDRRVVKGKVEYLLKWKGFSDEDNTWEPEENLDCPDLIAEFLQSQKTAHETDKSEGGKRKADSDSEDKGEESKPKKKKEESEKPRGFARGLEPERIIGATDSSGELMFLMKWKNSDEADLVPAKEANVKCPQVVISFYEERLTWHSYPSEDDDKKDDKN

The assay addresses T1, UHRF1 (ubiquitin-like containing PHD and RING fingers domain 1) (human (endogenous in BeWo)) (UniProt Q96T88).
T1 sequence: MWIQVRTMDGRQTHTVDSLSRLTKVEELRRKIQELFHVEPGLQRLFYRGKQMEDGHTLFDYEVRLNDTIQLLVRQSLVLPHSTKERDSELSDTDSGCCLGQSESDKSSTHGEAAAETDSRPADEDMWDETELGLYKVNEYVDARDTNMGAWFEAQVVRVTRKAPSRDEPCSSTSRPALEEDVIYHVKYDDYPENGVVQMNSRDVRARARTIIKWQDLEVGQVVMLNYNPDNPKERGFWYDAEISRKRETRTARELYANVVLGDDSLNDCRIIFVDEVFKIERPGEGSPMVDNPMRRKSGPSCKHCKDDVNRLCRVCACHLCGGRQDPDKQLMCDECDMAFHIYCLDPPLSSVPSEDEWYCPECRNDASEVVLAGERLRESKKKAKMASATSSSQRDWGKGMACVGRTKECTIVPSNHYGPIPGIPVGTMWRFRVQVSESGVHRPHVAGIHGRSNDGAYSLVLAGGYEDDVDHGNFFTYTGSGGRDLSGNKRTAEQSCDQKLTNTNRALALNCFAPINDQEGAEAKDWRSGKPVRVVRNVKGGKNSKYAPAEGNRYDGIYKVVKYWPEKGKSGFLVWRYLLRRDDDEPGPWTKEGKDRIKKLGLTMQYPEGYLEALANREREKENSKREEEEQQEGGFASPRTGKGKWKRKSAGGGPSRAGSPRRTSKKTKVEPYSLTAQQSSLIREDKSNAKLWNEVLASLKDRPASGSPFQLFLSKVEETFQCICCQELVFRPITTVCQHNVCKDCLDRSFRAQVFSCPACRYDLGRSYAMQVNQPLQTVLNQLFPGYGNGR
The assay can be described thus: co-IP; validation of the UHRF1 partners found by mass spectrometry by immunoprecipitation; data not shown.

Results are given in words; binding and its absence hold for the method and conditions named. Binding seen in cells or lysates may run through a third protein. Some results given as binding are weak or reduced against the parent protein; the word gives no strength.

HDAC2 (from UniProt Q92769 1-488): the binding result is “binds”.

On to PCNA (from UniProt P12004 1-261), for which the binding entry was “binds”.

Take USP7 (from UniProt Q93009 1-1102): the binding result is recorded as “binds”.

Turning to “heterochromatin protein 1 (HP1β) (from UniProt P83916 1-185)”, the binding entry is on record as “binds”.
